Source: the supplement of paper PMC10849652
The list shows a part of the results.

Sequences of proteins named here, by UniProt entry; tags and fusion partners are left off. A change or cut given only in a name is not applied to a line headed by its entry.
UniProt Q8N3C0, whole entry, looked up: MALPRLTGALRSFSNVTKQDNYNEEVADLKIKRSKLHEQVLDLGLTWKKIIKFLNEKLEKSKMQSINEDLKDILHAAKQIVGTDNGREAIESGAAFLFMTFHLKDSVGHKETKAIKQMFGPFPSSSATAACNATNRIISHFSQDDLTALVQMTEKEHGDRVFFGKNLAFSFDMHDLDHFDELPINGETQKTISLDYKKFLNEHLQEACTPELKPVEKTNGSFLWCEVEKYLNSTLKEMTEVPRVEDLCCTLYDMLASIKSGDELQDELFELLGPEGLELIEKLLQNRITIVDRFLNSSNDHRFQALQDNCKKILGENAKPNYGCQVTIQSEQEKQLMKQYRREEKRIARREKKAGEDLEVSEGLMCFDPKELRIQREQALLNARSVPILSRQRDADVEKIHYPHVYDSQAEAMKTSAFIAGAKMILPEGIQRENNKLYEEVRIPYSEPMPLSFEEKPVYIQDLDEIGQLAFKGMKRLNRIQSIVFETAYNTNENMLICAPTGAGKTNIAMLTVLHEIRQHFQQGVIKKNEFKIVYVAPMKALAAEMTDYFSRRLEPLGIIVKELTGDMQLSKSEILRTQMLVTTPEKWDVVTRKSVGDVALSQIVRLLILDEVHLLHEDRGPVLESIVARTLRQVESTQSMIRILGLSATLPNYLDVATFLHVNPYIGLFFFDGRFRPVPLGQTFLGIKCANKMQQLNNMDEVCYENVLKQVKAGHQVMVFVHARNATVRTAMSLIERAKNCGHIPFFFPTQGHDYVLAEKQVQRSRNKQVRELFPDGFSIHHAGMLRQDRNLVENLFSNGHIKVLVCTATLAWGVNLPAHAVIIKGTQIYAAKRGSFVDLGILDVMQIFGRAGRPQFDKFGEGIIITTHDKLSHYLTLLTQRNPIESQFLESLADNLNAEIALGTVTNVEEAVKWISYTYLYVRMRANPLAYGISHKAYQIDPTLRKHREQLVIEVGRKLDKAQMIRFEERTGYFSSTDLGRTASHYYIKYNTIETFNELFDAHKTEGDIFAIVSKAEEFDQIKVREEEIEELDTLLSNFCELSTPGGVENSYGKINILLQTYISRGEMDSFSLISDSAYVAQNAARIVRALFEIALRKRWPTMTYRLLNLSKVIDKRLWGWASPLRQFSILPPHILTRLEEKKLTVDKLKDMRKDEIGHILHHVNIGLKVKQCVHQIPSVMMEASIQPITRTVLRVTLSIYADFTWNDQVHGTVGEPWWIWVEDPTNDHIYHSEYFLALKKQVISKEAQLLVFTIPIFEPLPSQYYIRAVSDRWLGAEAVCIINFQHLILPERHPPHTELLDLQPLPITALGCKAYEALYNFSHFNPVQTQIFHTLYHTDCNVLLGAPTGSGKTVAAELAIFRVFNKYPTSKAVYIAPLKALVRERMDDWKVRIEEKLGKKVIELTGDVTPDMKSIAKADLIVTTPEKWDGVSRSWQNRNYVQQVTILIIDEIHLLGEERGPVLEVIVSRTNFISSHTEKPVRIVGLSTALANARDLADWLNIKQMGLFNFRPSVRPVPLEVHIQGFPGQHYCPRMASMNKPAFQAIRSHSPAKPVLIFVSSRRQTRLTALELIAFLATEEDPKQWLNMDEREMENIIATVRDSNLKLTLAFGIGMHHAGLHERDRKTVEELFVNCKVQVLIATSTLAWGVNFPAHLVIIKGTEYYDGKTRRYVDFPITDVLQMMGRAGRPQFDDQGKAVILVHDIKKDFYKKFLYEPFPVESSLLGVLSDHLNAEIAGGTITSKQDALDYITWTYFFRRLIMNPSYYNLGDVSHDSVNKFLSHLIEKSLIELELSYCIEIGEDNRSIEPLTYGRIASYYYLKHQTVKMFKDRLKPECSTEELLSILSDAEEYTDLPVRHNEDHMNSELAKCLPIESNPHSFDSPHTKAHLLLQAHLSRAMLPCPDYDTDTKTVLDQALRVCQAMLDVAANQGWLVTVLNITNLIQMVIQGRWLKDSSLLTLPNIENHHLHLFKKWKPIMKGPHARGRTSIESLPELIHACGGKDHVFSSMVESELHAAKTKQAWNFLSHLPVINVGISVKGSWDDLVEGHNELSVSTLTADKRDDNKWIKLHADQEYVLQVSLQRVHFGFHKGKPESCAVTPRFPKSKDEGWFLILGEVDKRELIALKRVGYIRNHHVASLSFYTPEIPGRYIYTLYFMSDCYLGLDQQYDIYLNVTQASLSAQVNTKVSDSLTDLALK
UniProt Q13315: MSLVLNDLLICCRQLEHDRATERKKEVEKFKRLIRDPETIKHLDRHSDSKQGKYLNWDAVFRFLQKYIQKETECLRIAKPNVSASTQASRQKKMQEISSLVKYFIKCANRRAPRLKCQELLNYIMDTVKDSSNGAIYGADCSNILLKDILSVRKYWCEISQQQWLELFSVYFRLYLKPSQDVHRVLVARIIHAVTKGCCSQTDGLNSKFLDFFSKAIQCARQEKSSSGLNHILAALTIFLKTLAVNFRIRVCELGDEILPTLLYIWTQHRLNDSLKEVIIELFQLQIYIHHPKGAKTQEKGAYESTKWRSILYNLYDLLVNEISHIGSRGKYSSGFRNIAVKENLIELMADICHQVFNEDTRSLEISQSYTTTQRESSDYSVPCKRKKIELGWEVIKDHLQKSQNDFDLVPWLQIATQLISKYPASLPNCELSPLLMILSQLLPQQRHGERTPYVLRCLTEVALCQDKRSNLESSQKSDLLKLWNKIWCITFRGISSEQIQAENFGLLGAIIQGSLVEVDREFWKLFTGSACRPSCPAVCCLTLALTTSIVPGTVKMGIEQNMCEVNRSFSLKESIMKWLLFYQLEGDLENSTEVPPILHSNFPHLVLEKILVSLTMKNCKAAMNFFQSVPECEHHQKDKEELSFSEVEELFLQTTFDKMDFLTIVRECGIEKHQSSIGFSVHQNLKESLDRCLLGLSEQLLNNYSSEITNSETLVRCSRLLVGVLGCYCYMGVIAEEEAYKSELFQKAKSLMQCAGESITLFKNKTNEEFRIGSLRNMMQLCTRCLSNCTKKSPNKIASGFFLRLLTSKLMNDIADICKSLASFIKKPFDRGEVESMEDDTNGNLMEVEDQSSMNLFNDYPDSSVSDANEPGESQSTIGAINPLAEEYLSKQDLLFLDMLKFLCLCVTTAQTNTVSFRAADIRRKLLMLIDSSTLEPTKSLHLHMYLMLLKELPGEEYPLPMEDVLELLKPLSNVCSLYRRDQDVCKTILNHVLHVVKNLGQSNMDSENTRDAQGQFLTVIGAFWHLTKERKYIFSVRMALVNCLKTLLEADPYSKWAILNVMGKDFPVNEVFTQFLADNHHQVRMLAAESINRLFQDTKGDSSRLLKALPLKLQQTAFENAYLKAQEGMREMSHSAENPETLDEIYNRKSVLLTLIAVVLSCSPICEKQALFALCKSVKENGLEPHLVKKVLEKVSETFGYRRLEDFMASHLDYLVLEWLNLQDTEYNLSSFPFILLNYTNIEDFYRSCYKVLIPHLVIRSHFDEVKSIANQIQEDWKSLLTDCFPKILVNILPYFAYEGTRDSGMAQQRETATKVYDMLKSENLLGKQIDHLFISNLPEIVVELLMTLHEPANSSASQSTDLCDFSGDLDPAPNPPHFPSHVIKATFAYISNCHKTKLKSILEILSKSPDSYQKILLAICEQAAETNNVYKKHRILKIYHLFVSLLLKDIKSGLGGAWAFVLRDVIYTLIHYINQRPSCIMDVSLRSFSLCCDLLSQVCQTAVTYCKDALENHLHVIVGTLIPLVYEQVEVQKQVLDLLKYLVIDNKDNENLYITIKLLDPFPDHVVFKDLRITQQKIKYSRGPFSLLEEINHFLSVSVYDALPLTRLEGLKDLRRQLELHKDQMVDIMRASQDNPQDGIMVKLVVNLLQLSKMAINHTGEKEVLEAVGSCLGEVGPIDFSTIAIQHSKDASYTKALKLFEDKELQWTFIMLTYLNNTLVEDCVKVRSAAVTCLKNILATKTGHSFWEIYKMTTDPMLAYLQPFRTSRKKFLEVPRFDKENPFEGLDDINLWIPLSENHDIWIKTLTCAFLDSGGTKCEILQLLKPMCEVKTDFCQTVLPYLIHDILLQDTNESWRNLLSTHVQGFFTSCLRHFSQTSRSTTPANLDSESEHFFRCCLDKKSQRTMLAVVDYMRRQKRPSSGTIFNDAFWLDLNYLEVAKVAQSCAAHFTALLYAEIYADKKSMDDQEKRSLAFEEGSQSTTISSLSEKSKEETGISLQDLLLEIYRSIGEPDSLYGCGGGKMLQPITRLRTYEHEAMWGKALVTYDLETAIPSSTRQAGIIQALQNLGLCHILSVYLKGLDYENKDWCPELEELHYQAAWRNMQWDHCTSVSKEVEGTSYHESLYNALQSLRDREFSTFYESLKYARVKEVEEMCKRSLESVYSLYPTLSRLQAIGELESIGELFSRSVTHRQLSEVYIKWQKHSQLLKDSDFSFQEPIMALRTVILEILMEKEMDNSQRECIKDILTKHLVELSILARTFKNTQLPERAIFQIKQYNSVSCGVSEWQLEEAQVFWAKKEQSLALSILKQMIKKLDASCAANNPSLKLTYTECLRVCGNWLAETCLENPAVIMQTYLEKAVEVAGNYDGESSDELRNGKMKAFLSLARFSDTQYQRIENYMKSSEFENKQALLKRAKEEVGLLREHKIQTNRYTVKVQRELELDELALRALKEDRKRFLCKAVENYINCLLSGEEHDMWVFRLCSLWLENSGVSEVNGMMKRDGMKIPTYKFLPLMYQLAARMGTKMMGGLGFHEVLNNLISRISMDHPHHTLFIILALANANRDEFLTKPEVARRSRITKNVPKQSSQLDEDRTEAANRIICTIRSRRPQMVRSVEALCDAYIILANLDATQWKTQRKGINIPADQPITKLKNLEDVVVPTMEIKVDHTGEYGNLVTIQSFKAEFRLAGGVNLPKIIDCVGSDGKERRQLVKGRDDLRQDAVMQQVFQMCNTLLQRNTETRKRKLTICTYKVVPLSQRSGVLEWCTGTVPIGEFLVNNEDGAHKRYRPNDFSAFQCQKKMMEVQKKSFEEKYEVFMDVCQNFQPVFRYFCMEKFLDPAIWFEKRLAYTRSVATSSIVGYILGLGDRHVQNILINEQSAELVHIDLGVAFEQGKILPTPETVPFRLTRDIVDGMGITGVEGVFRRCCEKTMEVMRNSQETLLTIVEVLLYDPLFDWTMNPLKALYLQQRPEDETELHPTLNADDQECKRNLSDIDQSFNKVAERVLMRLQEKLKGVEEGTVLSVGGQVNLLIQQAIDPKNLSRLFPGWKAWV
UniProt Q16864, whole entry, looked up: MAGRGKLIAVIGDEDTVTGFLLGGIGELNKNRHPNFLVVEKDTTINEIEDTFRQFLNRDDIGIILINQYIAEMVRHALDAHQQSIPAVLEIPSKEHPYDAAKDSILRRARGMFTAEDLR
UniProt Q8NBF6: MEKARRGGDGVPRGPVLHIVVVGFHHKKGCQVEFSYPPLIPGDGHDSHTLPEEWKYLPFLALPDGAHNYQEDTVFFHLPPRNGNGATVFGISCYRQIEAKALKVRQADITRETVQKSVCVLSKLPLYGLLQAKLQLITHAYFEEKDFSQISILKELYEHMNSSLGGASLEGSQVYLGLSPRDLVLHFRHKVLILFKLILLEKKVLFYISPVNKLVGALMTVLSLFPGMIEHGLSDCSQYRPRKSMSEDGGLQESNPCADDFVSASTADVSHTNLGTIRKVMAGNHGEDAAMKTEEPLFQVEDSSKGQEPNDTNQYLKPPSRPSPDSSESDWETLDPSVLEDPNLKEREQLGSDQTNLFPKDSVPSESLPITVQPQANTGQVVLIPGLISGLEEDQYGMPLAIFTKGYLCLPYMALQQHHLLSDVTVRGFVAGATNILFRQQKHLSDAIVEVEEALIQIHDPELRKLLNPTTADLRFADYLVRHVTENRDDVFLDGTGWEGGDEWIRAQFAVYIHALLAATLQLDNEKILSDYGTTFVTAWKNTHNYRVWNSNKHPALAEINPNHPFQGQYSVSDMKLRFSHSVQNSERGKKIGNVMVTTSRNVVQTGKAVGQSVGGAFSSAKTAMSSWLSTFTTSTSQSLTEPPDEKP
UniProt P15336: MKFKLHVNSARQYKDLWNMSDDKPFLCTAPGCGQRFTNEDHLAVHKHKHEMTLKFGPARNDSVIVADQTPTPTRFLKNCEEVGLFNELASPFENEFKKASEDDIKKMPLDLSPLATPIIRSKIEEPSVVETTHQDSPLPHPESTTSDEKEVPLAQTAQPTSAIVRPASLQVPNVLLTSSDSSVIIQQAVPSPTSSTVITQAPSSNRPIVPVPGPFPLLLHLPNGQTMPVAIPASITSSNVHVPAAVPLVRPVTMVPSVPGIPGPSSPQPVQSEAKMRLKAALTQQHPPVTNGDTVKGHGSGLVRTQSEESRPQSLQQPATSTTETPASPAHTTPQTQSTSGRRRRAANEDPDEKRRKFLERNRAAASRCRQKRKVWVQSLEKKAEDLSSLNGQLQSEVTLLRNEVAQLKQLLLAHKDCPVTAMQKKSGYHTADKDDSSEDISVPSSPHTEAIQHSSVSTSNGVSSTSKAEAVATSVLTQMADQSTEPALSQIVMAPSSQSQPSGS
UniProt P56378: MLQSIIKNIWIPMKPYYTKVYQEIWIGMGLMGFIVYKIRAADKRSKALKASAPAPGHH

Key:
Experiment in all cases: log2 fold change, soluble protein after heating vs DMSO (PISA); higher = thermal stabilisation; K562 lysate, 10 uM; active = over 0.2 and 3.5 SD of the protein, either way, in both replicates (recomputed)
erlotinib = compound: C#Cc1cccc(Nc2ncnc3cc(OCCOC)c(OCCOC)cc23)c1 [erlotinib]
Summary of the method: (§1)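 K562 pellets were dounce-homogenised in PBS pH 7.4 containing 1 mM MgCl2, and the crude extract, at 1 mg/mL protein, was exposed to 10 μM compound for 30 min. Aliquots were heated for 3 min across 48°C-58°C, pooled, brought to 0.5% NP-40 at 4°C and spun at 21,000xg for 90 min, with the supernatant taken as soluble protein. TMTpro 16plex LC-MS/MS with equalised channel sums quantified that protein. Values are log-two fold changes in thermal stability relative to solvent controls, taken from duplicates.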

[1] = compound: C/C(=N\NC(=O)C1=CC(=CC=C1)S(=O)(=O)N2CCOCC2)/C3=C(C=CC(=C3)Cl)O
Summary of the method: as §1

[2] = compound: C1=CC(=CC=C1C2=NC3=C(N2)C=C(C=C3)C(=O)N)OC4=CC=C(C=C4)Cl
Summary of the method: as §1

[3] = compound: C1=CC2=C(C=CC(=C2)/C=C\3/C(=O)NC(=NCC4=CC=CS4)S3)N=C1
Summary of the method: as §1

[4] = compound: C1=CC2=NC=CN=C2C=C1/C=C/3\C(=O)NC(=O)S3
Summary of the method: as §1

[5] = compound: C1=CC=C(C=C1)C2=NC(=C(N2)C3=CC=NC=C3)C4=CC(=C(C=C4)Cl)O
Summary of the method: as §1

[6] = compound: C1=CC=C2C(=C1)C3=NNC4=CC=CC(=C43)C2=O
Summary of the method: as §1

[7] = compound: C1CCN(C1)C(=O)NC2=CC=CC(=C2)NC3=NC=C(C(=N3)NCCC4=CN=CN4)Br
Summary of the method: as §1

[8] = compound: C1CN(CCC1(CC2=CC=C(C=C2)Cl)N)C3=NC=NC4=C3C=CN4
Summary of the method: as §1

IRAK-1-4 Inhibitor I = compound: C1COCCN1CCN2C3=CC=CC=C3N=C2NC(=O)C4=CC(=CC=C4)[N+](=O)[O-] [IRAK-1-4 Inhibitor I]
Summary of the method: as §1

ibrutinib = compound: C=CC(=O)N1CCC[C@@H](n2nc(-c3ccc(Oc4ccccc4)cc3)c3c(N)ncnc32)C1 [ibrutinib]
Summary of the method: as §1

[9] = compound: CC(=O)c1cnc2ccc(-c3cc(Cl)c(O)c(Cl)c3)nc2c1N[C@H]1CC[C@H](CN(C)C)CC1
Summary of the method: as §1

ralimetinib = compound: CC(C)(C)Cn1c(N)nc2ccc(-c3[nH]c(C(C)(C)C)nc3-c3ccc(F)cc3)nc21 [ralimetinib]
Summary of the method: as §1

[10] = compound: CC(C)(O)CC(=O)NCCn1ccc2ncnc(Nc3ccc(Oc4cccc(C(F)(F)F)c4)c(Cl)c3)c21
Summary of the method: as §1

[11] = compound: CC(C)C1=C2N=C(C=C(N2N=C1)NCC3=CC=CC=C3)NCCCCCCN
Summary of the method: as §1

[12] = compound: CC1=C(C(CC(=O)N1)C2=CC=C(C=C2)C(F)(F)F)C(=O)NC3=C(C=C4C(=C3)C=NN4)F
Summary of the method: as §1

[13] = compound: CC1=C(C2=C(C=C1)C(=O)C3=CC=CC=C3N2CCCN)C
Summary of the method: as §1

[14] = compound: CC1=C(C=C(C=C1)NC(=O)C2=CC(=CC=C2)C(C)(C)C#N)NC3=CC4=C(C=C3)N=CN(C4=O)C
Summary of the method: as §1

[15] = compound: CC1=C(C=C(C=C1)NC(=O)C2=CC(=CC=C2)N(C)C)NC(=O)C3=CC=C(C=C3)O
Summary of the method: as §1

[16] = compound: CC1=CC=C(C=C1)SC2=C3C=C(SC3=CN=C2)C(=O)N
Summary of the method: as §1

| Target | log2 fold change (erlotinib) | log2 fold change [1] | log2 fold change [2] | log2 fold change [3] | log2 fold change [4] | log2 fold change [5] | log2 fold change [6] | log2 fold change [7] | log2 fold change [8] | log2 fold change (IRAK-1-4 Inhibitor I) | log2 fold change (ibrutinib) | log2 fold change [9] | log2 fold change (ralimetinib) | log2 fold change [10] | log2 fold change [11] | log2 fold change [12] | log2 fold change [13] | log2 fold change [14] | log2 fold change [15] | log2 fold change [16] |
| --- | --- | --- | --- | --- | --- | --- | --- | --- | --- | --- | --- | --- | --- | --- | --- | --- | --- | --- | --- | --- |
| ASCC3 (UniProt Q8N3C0) | inactive: 0.06 | inactive: -0.175 | inactive: 0.02 | inactive: -0.044 | inactive: -0.022 | inactive: 0.03 | inactive: -0.079 | inactive: -0.026 | inactive: 0.02 | inactive: 0.013 | inactive: 0 | inactive: -0.023 | inactive: 0.03 | inactive: -0.022 | inactive: 0.042 | inactive: 0.011 | inactive: -0.109 | inactive: -0.011 | inactive: 0.046 | inactive: -0.027 |
| ATP5IF1 (UniProt Q9UII2) | inactive: -0.004 | inactive: 0.018 | inactive: 0.018 | inactive: -0.028 | inactive: -0.013 | inactive: 0 | inactive: 0.041 | inactive: -0.029 | inactive: 0.046 | inactive: 0.005 | inactive: 0.059 | inactive: -0.017 | inactive: -0.082 | inactive: -0.05 | inactive: 0.007 | inactive: -0.024 | inactive: 0.001 | inactive: -0.019 | inactive: -0.015 | inactive: -0.023 |
| ATP5MD (UniProt Q96IX5) | inactive: -0.079 | inactive: -0.008 | inactive: -0.001 | inactive: 0.034 | inactive: 0.06 | inactive: 0.01 | inactive: 0.06 | inactive: -0.041 | inactive: -0.025 | inactive: -0.032 | inactive: 0.024 | inactive: 0.033 | inactive: -0.001 | inactive: 0.062 | inactive: -0.024 | inactive: 0.001 | inactive: -0.053 | inactive: 0.016 | inactive: 0.015 | inactive: -0.005 |
| ATP5F1B (UniProt P06576) | inactive: -0.012 | inactive: -0.024 | inactive: 0.011 | inactive: 0.003 | inactive: -0.002 | inactive: -0.003 | inactive: 0.008 | inactive: -0.001 | inactive: -0.008 | inactive: 0.014 | inactive: 0.025 | inactive: 0.009 | inactive: -0.001 | inactive: -0.026 | inactive: -0.011 | inactive: -0.011 | inactive: -0.029 | inactive: -0.006 | inactive: 0 | inactive: -0.005 |
| ATP5PF isoform 2 (UniProt P18859) | inactive: 0.063 | inactive: 0.107 | inactive: -0.021 | inactive: 0.011 | inactive: 0.017 | inactive: 0.05 | inactive: -0.01 | inactive: -0.003 | inactive: 0.09 | inactive: -0.026 | inactive: 0.069 | inactive: -0.055 | inactive: -0.003 | inactive: 0.063 | inactive: -0.053 | inactive: -0.032 | inactive: -0.055 | inactive: 0.026 | inactive: 0.05 | inactive: 0.083 |
| ATM (UniProt Q13315) | inactive: 0.02 | inactive: -0.031 | inactive: -0.02 | inactive: -0.064 | inactive: -0.052 | inactive: -0.001 | inactive: 0.043 | inactive: -0.016 | inactive: -0.042 | inactive: 0.007 | inactive: 0.027 | active: 0.253 | inactive: 0.013 | inactive: -0.021 | inactive: 0.04 | inactive: 0.002 | inactive: -0.027 | inactive: -0.014 | inactive: -0.015 | inactive: -0.013 |
| ATOX1 (UniProt O00244) | inactive: 0.025 | inactive: 0.105 | inactive: -0.057 | inactive: 0.019 | inactive: 0.023 | inactive: -0.055 | inactive: 0.039 | inactive: -0.029 | inactive: 0.049 | inactive: 0.019 | inactive: 0.161 | inactive: -0.006 | inactive: 0.015 | inactive: 0.001 | inactive: -0.047 | inactive: -0.018 | inactive: 0.067 | inactive: 0.03 | inactive: 0.071 | inactive: 0.066 |
| ATP7A isoform 3 (UniProt Q04656) | inactive: 0.007 | inactive: -0.046 | inactive: -0.015 | inactive: 0.005 | inactive: 0.003 | inactive: 0.037 | inactive: -0.009 | inactive: -0.004 | inactive: 0.006 | inactive: -0.022 | inactive: -0.003 | inactive: 0.015 | inactive: -0.018 | inactive: -0.034 | inactive: -0.004 | inactive: -0.01 | inactive: -0.014 | inactive: 0.016 | inactive: 0.01 | inactive: -0.011 |
| ATP6AP1 (UniProt Q15904) | inactive: -0.01 | inactive: -0.036 | inactive: -0.017 | inactive: 0.001 | inactive: 0.037 | inactive: -0.048 | inactive: 0.074 | inactive: -0.045 | inactive: 0 | inactive: -0.041 | inactive: -0.014 | inactive: -0.003 | inactive: 0.02 | inactive: -0.048 | inactive: 0.003 | inactive: 0.042 | inactive: 0.014 | inactive: -0.034 | inactive: 0.05 | inactive: -0.02 |
| ATG7 (UniProt O95352) | inactive: 0.03 | inactive: 0.113 | inactive: 0.035 | inactive: 0.001 | inactive: 0.015 | inactive: -0.003 | inactive: -0.06 | inactive: -0.028 | inactive: 0.032 | inactive: 0.017 | inactive: 0.014 | inactive: -0.008 | inactive: 0.026 | inactive: -0.016 | inactive: -0.022 | inactive: 0.021 | inactive: 0.002 | inactive: -0.001 | inactive: 0.011 | inactive: 0.027 |
| AUP1 (UniProt Q9Y679) | inactive: 0.122 | inactive: 0.048 | inactive: -0.038 | inactive: 0.027 | inactive: -0.01 | inactive: -0.041 | inactive: 0.056 | inactive: 0.027 | inactive: 0.003 | inactive: 0.012 | inactive: -0.014 | inactive: 0.073 | inactive: -0.031 | inactive: 0.032 | inactive: -0.045 | inactive: 0.004 | inactive: -0.016 | inactive: -0.041 | inactive: -0.015 | inactive: -0.008 |
| ATP6V1F isoform 2 (UniProt Q16864) | inactive: 0.053 | inactive: 0.086 | inactive: -0.015 | inactive: 0 | inactive: 0.136 | inactive: 0.025 | inactive: 0.129 | inactive: -0.058 | inactive: 0.017 | inactive: 0.031 | inactive: 0.075 | inactive: -0.057 | inactive: -0.042 | inactive: -0.042 | inactive: 0.029 | inactive: -0.021 | inactive: -0.064 | inactive: 0.027 | inactive: 0.036 | inactive: 0.084 |
| AVL9 (UniProt Q8NBF6) | inactive: -0.012 | inactive: 0.004 | inactive: 0.006 | inactive: -0.013 | inactive: -0.011 | inactive: -0.014 | inactive: 0.02 | inactive: -0.045 | inactive: 0.001 | inactive: 0.003 | inactive: -0.011 | inactive: -0.03 | inactive: 0.059 | inactive: 0.004 | inactive: -0.01 | inactive: 0.031 | inactive: -0.011 | inactive: 0.005 | inactive: 0.002 | inactive: -0.007 |
| ATF2 (UniProt P15336) | inactive: -0.076 | inactive: 0.41 | inactive: -0.035 | inactive: -0.037 | inactive: 0.001 | inactive: 0.025 | inactive: -0.055 | inactive: -0.011 | inactive: -0.012 | inactive: 0.023 | inactive: -0.027 | inactive: -0.054 | inactive: 0.004 | inactive: -0.012 | inactive: 0.048 | inactive: 0.064 | inactive: -0.02 | inactive: -0.028 | inactive: 0.021 | inactive: 0.081 |
| ATP6AP2 (UniProt O75787) | inactive: 0.024 | inactive: -0.016 | inactive: -0.041 | inactive: 0.072 | inactive: 0.07 | inactive: -0.019 | inactive: -0.015 | inactive: -0.085 | inactive: -0.041 | inactive: 0.012 | inactive: 0.037 | inactive: 0.113 | inactive: 0.009 | inactive: -0.049 | inactive: -0.021 | inactive: 0.013 | inactive: -0.029 | inactive: 0.017 | inactive: -0.014 | inactive: -0.01 |
| ATP5MPL (UniProt P56378) | inactive: 0.012 | inactive: -0.002 | inactive: -0.01 | inactive: 0.013 | inactive: 0.022 | inactive: -0.048 | inactive: 0.09 | inactive: -0.055 | inactive: -0.032 | inactive: -0.031 | inactive: -0.001 | inactive: -0.039 | inactive: 0.034 | inactive: -0.01 | inactive: -0.013 | inactive: -0.065 | inactive: 0.02 | inactive: 0.07 | inactive: 0.03 | inactive: 0.038 |

Not a retest: an excerpt of the list.

| Target | log2 fold change (erlotinib) | log2 fold change [1] | log2 fold change [2] | log2 fold change [3] | log2 fold change [4] | log2 fold change [5] | log2 fold change [6] | log2 fold change [7] | log2 fold change [8] | log2 fold change (IRAK-1-4 Inhibitor I) | log2 fold change (ibrutinib) | log2 fold change [9] | log2 fold change (ralimetinib) | log2 fold change [10] | log2 fold change [11] | log2 fold change [12] | log2 fold change [13] | log2 fold change [14] | log2 fold change [15] | log2 fold change [16] |
| --- | --- | --- | --- | --- | --- | --- | --- | --- | --- | --- | --- | --- | --- | --- | --- | --- | --- | --- | --- | --- |
| ATP6V1F isoform 2 (UniProt Q16864) | inactive: 0.053 | inactive: 0.086 | inactive: -0.015 | inactive: 0 | inactive: 0.136 | inactive: 0.025 | inactive: 0.129 | inactive: -0.058 | inactive: 0.017 | inactive: 0.031 | inactive: 0.075 | inactive: -0.057 | inactive: -0.042 | inactive: -0.042 | inactive: 0.029 | inactive: -0.021 | inactive: -0.064 | inactive: 0.027 | inactive: 0.036 | inactive: 0.084 |
| AVL9 (UniProt Q8NBF6) | inactive: -0.012 | inactive: 0.004 | inactive: 0.006 | inactive: -0.013 | inactive: -0.011 | inactive: -0.014 | inactive: 0.02 | inactive: -0.045 | inactive: 0.001 | inactive: 0.003 | inactive: -0.011 | inactive: -0.03 | inactive: 0.059 | inactive: 0.004 | inactive: -0.01 | inactive: 0.031 | inactive: -0.011 | inactive: 0.005 | inactive: 0.002 | inactive: -0.007 |
